Results deposited as PubChem BioAssay AID1259405 (NCATS, 2018).
Screen: 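Silenced genes that increase secreted GFP made by CHO cells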 (primary screen). Cells: Chinese hamster CHO-K1 ovary cells with stable secreted eGFP expression. Knock-down reagent: single siRNA against mouse genes, 0.8 pmol siRNA per well (2 µl of 400 nM stock). Duration: 3 days. Read-out: 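Percent of the per-plate non-targeting control median for intracellular GFP per well by laser scanning cytometry and for cell viability by ATP luminescence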. Direction: GFP, % of control: higher = more GFP per well, higher productivity; viability (ATP), % of control: higher = more viable cells (more ATP). Hit rule: 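a knock-down is called active if GFP reaches 120% or more of non-targeting control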.
Shown is a random part of about 50,000 deposited reagents. Over the whole deposit, about 4,000 (8%) are marked active. 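Mouse siRNA library applied to hamster cells; one well for each siRNA.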 Entries without a mark were called inactive. The numbers tell different reagents against one gene apart. No sequences are given here.

gene	reagent	GFP, % of control	viability (ATP), % of control
Tacr2	1	77.6	73.6
Tacr2	2	89.6	71.4
Tacr2	3	77.2	82.9
D630029K05Rik	1	59.1	85.3
D630029K05Rik	2	29.7	57.4
D630029K05Rik	3	102	96.9
Ttll1	1	103	67.8
Ttll1	2	61.6	81.9
Ttll1	3	65.5	54.8
Xpo6	1	69.8	66.5
Xpo6	2	108	97.6
Xpo6	3	78.1	94.3
Shc1	1	69.9	56
Shc1	2	82.6	67.5
Shc1	3	152 (active)	118
Zfp37	1	95.1	67.2
Zfp37	2	81.6	92.3
Zfp37	3	97.8	116
Zfp879	1	65.5	94.3
Zfp879	2	42.6	69.6
Zfp879	3	76.9	121
Phka1	1	74.5	92.9
Phka1	2	86.1	85.2
Cops4	1	78.7	110
Cops4	2	25.2	34.9
Cops4	3	122 (active)	167
Slc27a1	1	110	58.1
Slc27a1	2	84.4	79.4
Slc27a1	3	86.7	124
Mrc1	1	68.5	92.4
Mrc1	2	55.4	63
Mrc1	3	87.9	75
Tmem18	1	62	64.8
Tmem18	2	71.4	69.8
Tmem18	3	81.3	88.2
Mybpc1	1	160 (active)	114
Mybpc1	2	72.3	67
Tram1l1	1	58	64.7
Tram1l1	2	109	133
Tram1l1	3	84.3	89.8
Papola	1	96.9	93.9
Papola	2	97.4	88.2
Cyp19a1	1	79.5	81.3
Cyp19a1	2	81.4	70.5
Cyp19a1	3	80.6	62.3
Arl2bp	1	59.9	53.4
Arl2bp	2	72.7	87.7
Arl2bp	3	74.1	61.5
Mesd	1	97.6	89.3
Mesd	2	40.2	81.3
Mesd	3	104	66.4
Brd8	1	74	107
Brd8	2	68.2	59.3
Brd8	3	131 (active)	132
Bag4	1	24.7	59.5
Bag4	2	114	105
Bag4	3	51.9	99.5

Taken from above:
Shc1 #2, GFP, % of control = 82.6
For “GFP, % of control”, Tram1l1 #1 reads 58
Under “viability (ATP), % of control”, Xpo6 #2 is entered as 97.6
